Assay results from paper PMC13546849.
No constants are given. Whether binding was seen depends on the method and setting. Binding seen in cells or lysates may run through a third protein. A result given as binding can be weak or reduced; the word gives no strength. For some assays here: Where a sequence is shown, tags or fusion partners need not be part of it.

T1: Vesicular monoamine transporter 1 (VMAT1), as in the co-immunoprecipitation from PC12 cells (UniProt Q01818)
T1 sequence: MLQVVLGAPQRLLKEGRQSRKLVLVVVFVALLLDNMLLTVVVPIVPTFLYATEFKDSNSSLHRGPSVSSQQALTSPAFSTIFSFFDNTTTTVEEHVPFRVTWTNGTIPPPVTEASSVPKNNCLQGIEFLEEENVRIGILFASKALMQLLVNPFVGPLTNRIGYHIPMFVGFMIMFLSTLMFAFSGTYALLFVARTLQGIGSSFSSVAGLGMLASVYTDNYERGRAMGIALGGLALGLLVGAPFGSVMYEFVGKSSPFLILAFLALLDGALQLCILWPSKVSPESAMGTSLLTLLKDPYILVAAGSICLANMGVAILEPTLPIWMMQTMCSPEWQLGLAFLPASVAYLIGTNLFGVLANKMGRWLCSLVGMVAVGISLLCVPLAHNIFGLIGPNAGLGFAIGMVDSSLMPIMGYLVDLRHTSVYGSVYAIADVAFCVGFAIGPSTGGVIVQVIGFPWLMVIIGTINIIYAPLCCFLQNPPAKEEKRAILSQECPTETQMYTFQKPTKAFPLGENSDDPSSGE


What was measured:
[1] = biological target: T1, Vesicular monoamine transporter 1 (VMAT1), as in the co-immunoprecipitation from PC12 cells; assay: co-IP; native co-immunoprecipitation from PC12 homogenate; beads washed four times with PBS with 1% Triton X-100; soft elution (0.2% SDS, 0.1% Tween-20, 50 mM Tris-HCl pH 8.0); IgG IP as control; immunoblot
[2] = biological target: AP-3 δ subunit (δ1 subunit of the AP-3 complex) (rat (endogenous in PC12)); assay: proximity ligation; Duolink In Situ Red kit (mouse/rabbit) on fixed (4% PFA), permeabilised (0.2% Triton X-100) WT PC12 cells; primary antibodies to AP-3δ and to SYT1, DLK1 or GFP (for VMAT1-GFP); no-antibody control showed no PLA signal

binding [1] | binding [2] | Molecule
binds |  | AP-3 μ subunit (rat (endogenous in PC12))
 | binds | VMAT1-GFP (vesicular monoamine transporter 1 with GFP) (protein, UniProt Q01818 1-521) MLQVVLGAPQRLLKEGRQSRKLVLVVVFVALLLDNMLLTVVVPIVPTFLYATEFKDSNSSLHRGPSVSSQQALTSPAFSTIFSFFDNTTTTVEEHVPFRVTWTNGTIPPPVTEASSVPKNNCLQGIEFLEEENVRIGILFASKALMQLLVNPFVGPLTNRIGYHIPMFVGFMIMFLSTLMFAFSGTYALLFVARTLQGIGSSFSSVAGLGMLASVYTDNYERGRAMGIALGGLALGLLVGAPFGSVMYEFVGKSSPFLILAFLALLDGALQLCILWPSKVSPESAMGTSLLTLLKDPYILVAAGSICLANMGVAILEPTLPIWMMQTMCSPEWQLGLAFLPASVAYLIGTNLFGVLANKMGRWLCSLVGMVAVGISLLCVPLAHNIFGLIGPNAGLGFAIGMVDSSLMPIMGYLVDLRHTSVYGSVYAIADVAFCVGFAIGPSTGGVIVQVIGFPWLMVIIGTINIIYAPLCCFLQNPPAKEEKRAILSQECPTETQMYTFQKPTKAFPLGENSDDPSSGE
